Values quoted from earlier work, collected in patent publication US20240252594A1, “COMBINATION THERAPY FOR NEURODEGENERATIVE DISEASES” (ALETA NEUROSCIENCE, LLC, priority 2021, published 2024).
At least one structure is not confirmed: it was looked up by name or label, or the drawing left a doubt.

Tested on: G93A mice
Conditions: oral administration; cited from earlier work

In the case of `Cc1nc(Nc2ncc(C(=O)Nc3c(C)cccc3Cl)s2)cc(N2CCN(CCO)CC2)n1` [dasatinib], the Survival is listed as “improved”.
